Primary screen of a compound library

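Viability assay of Plasmodium falciparum sporozoites; the read-out is not stated. The concentration is filed as 10 mM, unlikely as a test dose, so the dose is not known. The record gives no direction; compounds that gave an IC50 in retests scored well above the rest, so higher reads as lower viability. Strong results were mostly tested again. Size under these conditions: about 34,000 compounds, about 280 of them at 50% or above in at least one test.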

The filed quantity is “Percent Effect” (%). How 0% and 100% were set is not recorded. Most values in the screen are low, and negative values occur. This is an unselected part of the compounds tested. Two or more numbers in one place are separate tests of the same structure; such repeats can differ widely.

compound | percent effect
[H][C@]12CCCCN1CCC[C@H]2CCC(=O)N1CCC(c2nnc[nH]2)CC1 | -2.901% and -10.01%
O=C(O)C(F)(F)F.[H][C@@]12C[C@@H](Oc3cccc(F)c3)CN1CCN(C(=O)c1ccnnc1)C2 | 8.55%
OC(CN1CCCCCCC1)c1ccc(OC(F)(F)F)cc1 (stereo not given) | 4.829%
Br.Cc1ccccc1OC1CCN(CC(=O)Nc2ccn(C)n2)CC1 | 7.419%
CCOc1c(F)cccc1C(=O)N(CC)C(C)c1ccncc1 (stereo not given) | -1.695%
CC(=O)N1CCC2(CC1)CN(C(C)C)c1ccc(F)cc12 | 1.519%
CCN(Cc1c(F)cccc1F)Cn1nc(C)c2c(C)onc2c1=O | 9.498%
CCOc1cc(=O)n2c(c1C(=O)OCc1ccc(F)cc1)CCCC2 | 4.853%
O=C(CCc1nnc(-c2ccccc2)o1)N1CCN(CC2CC2)CC1 | 6.875%
c1cc2nccc(CC3CCCN(Cc4ncc[nH]4)CC3)c2cn1 (stereo not given) | -0.1185%
CS(=O)(=O)NCc1cc(-c2cc(F)cc(F)c2)nc(N2CC[C@H](O)C2)n1 | 2.964%
Cc1cc(N2CCC(Cc3cccnc3)C2)ncn1 (stereo not given) | 0.3197%
Cc1ccc(Cl)cc1C(=O)N1CCC2(CC1)c1ccccc1[C@@H](N)[C@@H]2O | 0.3529%
COCC1CN(C(=O)c2ccccn2)Cc2nccn2C1 (stereo not given) | 5.734%
O=C1COc2ccccc2N1CCCn1cnnn1 | 4.459%
OCC(CO)Nc1ccc2c(Cl)ccc(Cl)c2n1 | 6.094%
O=C(O)C(F)(F)F.[H][C@@]12COC[C@]1(COCC1CCCC1)CN(c1ncccn1)C2 | 5.396%
CCc1n[nH]c(C2CN(C(=O)c3nc(C)n4ccccc34)CCO2)n1 (stereo not given) | -13.51%
O=C(c1cc(Cl)cc2cccnc12)N1CCN(CCO)CC1 | 11.95%
CN(Cc1cnccn1)c1cncc(Br)c1 | 12.71%
O=C(c1cc(=O)n(-c2ccccc2)[nH]1)N1CCOCC(O)C1 (stereo not given) | -17.7%
Cn1nccc1C(=O)N1CCOC(Cc2cccc(C(F)(F)F)c2)C1 (stereo not given) | 1.717%
CC(=O)N1N=C(c2ccco2)OC1C(=O)N(CC(C)C)CC(C)C (stereo not given) | -17.57%
COC1CCCN(Cc2nc(Cc3ccccc3F)no2)C1 (stereo not given) | -0.104%
[H][C@@]12CC(=O)N(Cc3ccncc3)[C@@]1([H])CCN2Cc1cnn(C)c1 | -10.47%
O=C(NCCCNC(=O)c1cccc(O)c1)Nc1ccc(F)cc1F | -5.975%
CN1CCN(C(=O)c2cccn2C)Cc2cccnc21 | 5.228%
COc1ccc(OC)c(CN(Cc2ccco2)Cc2[nH]cnc2C)c1.O=C(O)CC(O)(CC(=O)O)C(=O)O | 12.68%
CCn1cc(CN2CCC(O)(Cn3nc(C)ccc3=O)CC2)cn1 | 0.3271%
O=C(NCC1CCN(Cc2ccsc2)CC1)NC1CC1 | -2.793%
Cc1nc(CN2CCN(C(=O)c3ccn(C)c(=O)c3)CC2)cs1 | -14.08%
CN1CCC(N(C)C(=O)c2cnn(-c3ccccc3Br)c2N)CC1 | 17.97% and 9.83% and 24.54%
[H][C@@]12CN(c3ccc(C)nn3)C[C@@H](C(=O)NC3CCC3)[C@]1([H])CCO2 | 4.545%
Cc1cc(C)n(CC2CN(CC(=O)NCc3ccccn3)CCO2)n1 (stereo not given) | 9.758%
Cc1cccc(OCCN2CCN(Cc3cnn(CCO)c3)CC2)c1 | -4.736%
NCc1cnn(-c2ccccc2C(=O)NCc2ccccn2)c1 | 9.26%
O=C(c1cnco1)N1CCCC(Cc2cccc3ncccc23)C1 (stereo not given) | -11.97%
CCCNC(=O)c1ccc2c(c1)C(=O)N(CC(C)C)C2=O | -4.824%
COC(=O)CSCc1nc(-c2ccc(Cl)cc2)no1 | -107.5% and -111.6%
Cc1nn(CC(=O)N2CCN(c3ccccc3F)CC2)c(C)c1Cl | -15.7%
[H][C@]12CN(Cc3cccs3)CCN1C[C@H](c1ccccc1)[C@H]2C(=O)NC | -23.98%
Cc1nc(CNCc2cccnc2Oc2ccc(C)c(F)c2F)c[nH]1 | -10.3%
Cn1ncc2c(N3CCCN(C(=O)c4ccsc4)CC3)ncnc21 | 7.601%
COc1ccccc1C1CNCCN1C(C)=O (stereo not given) | 13.8%
COCc1noc(-c2ccc(N3CCC[C@H]3CO)nc2)n1 | 100.4% and 89.16% and 80.89%
O=C(CNc1nc(C(F)(F)F)cs1)N1CCc2sccc2C1 | 8.233%
Cn1cc(CN2CCC3(CC2)CC(Nc2nccs2)CO3)cn1.O=C(O)C(F)(F)F (stereo not given) | 18.81%
O=C1CCSCC(C(=O)N2CCCC2)N1 (stereo not given) | -5.313%
CN(C)C(=O)Cn1c(C2CC2)c(CN2CCC(O)CC2)c2cccnc21.Cl | 10.01%
Cc1cc(C)n(C2CCCN(C(=O)Cc3cccs3)C2)n1 (stereo not given) | -7.854%
CCOCCNC(=O)c1cccnc1Sc1cc(OC)ccc1OC | -3.112%
Cc1noc(C)c1-c1cncc(C2CCCN2Cc2ccncc2)n1 (stereo not given) | -5.332%
CC(C)N1CCc2nnc(COc3cncnc3)n2CC1.O=C(O)C(F)(F)F | 6.326%
Cc1ccc(C(O)CNC(=O)NCc2nc(C)cs2)cc1 (stereo not given) | -13.76%
CC(C)NC(=O)c1ccc2c(c1)C(c1nc[nH]n1)CN2C (stereo not given) | 3.02%
[H][C@@]12C[C@H](C)O[C@@]1([H])CCN(C(=O)COCC)C2 | 16.75%
O=C(NCCNCC1CNc2ccnn2C1)c1ccc(F)cc1 (stereo not given) | -18.94%
CCc1noc(C(C)N2CCN(C(=O)CN3CCOCC3)CC2)n1 (stereo not given) | 4.601%
O=C(Cn1cc(-n2cccc2)cn1)NCC(F)(F)F | -4.995%
O=C(O)C(F)(F)F.[H][C@@]12CN(CC3CCCC3)CCO[C@]1([H])CN(C(=O)c1cnc(C)cn1)C2 | -5.481%
CSCCc1nc(C(C)C)nn1-c1ccncc1C | -19.09% and -18.73%
NC(=O)c1sc2ccccc2c1C1CCN(S(=O)(=O)N2CCOCC2)C1 (stereo not given) | -2.992%
CCN1CCN(S(=O)(=O)c2cc(C)c(Cl)cc2Cl)CC1 | -2.617%
O=c1c(-c2ccnc(NC3CCOCC3)n2)cnc2sc(Cl)cn12 | 5.882%
Cn1cc(-c2nnn3c2COC(CNCC2CCOCC2)C3)cn1 (stereo not given) | -13%
Oc1cc(-c2nccs2)nc(C2CCN(Cc3cccs3)CC2)n1 | 2.091%
COc1ccc(C[C@H]2CN(C(=O)c3cscn3)CC[C@@H]2OC)cc1 | 4.291%
Cc1ccc(C(=O)Nc2cn[nH]c2)cc1 | -5.594%
Cc1noc(C)c1CCC(=O)N1CCN(CCn2cccn2)CC1 | -3.188%
Cc1cnn(CC2CCCN2Cc2nc3ccccc3c(=O)[nH]2)c1 (stereo not given) | 17.32%
CN(Cc1nc(-c2ccoc2)no1)C1CCCN(c2cccnn2)C1 (stereo not given) | 7.684%
CC(=O)N1CCC2(CCN(Cc3ccc(Cl)c(C(F)(F)F)c3)CC2)C1 | -8.759%

Once more, the final 4:

For Cc1noc(C)c1CCC(=O)N1CCN(CCn2cccn2)CC1 the result was -3.188%.
For Cc1cnn(CC2CCCN2Cc2nc3ccccc3c(=O)[nH]2)c1 (stereo not given) the result was 17.32%.
For CN(Cc1nc(-c2ccoc2)no1)C1CCCN(c2cccnn2)C1 (stereo not given) the result was 7.684%.
For CC(=O)N1CCC2(CCN(Cc3ccc(Cl)c(C(F)(F)F)c3)CC2)C1 the result was -8.759%.

The values are deposited in ChEMBL (CHEMBL3988442, “University of Dundee, Small-Polar-MMV Screening Library” (2021)).